From patent US20040191240A1, “Composition and method for nerve regeneration” (priority 2003, published 2004)
These are yes or no findings as the source states them, for the method shown. Some results given as binding are weak or reduced against the parent protein; the word gives no strength.

Sequences of proteins named here, by UniProt entry; tags and fusion partners are left off. A change or cut given only in a name is not applied to a line headed by its entry.
UniProt P08138: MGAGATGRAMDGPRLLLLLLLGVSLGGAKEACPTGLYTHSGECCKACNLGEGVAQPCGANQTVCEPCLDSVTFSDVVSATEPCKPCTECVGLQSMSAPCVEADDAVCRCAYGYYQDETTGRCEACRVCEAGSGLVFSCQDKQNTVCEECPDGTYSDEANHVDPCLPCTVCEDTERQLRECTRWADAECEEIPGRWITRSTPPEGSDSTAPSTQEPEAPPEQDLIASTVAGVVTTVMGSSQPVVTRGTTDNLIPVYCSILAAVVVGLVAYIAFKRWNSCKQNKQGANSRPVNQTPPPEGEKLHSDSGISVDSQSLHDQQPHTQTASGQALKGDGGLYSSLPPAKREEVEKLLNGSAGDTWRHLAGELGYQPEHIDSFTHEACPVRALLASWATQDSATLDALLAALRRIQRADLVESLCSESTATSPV

Biological target: amino-terminally FLAG-tagged human p75 (human) (UniProt P08138)
Assay: p75 precipitated from transfected 293T cells, incubated with the RhoA-Rho GDI complex

## prenylated RhoA complexed with Rho GDI (from UniProt P24406 1-190; P52565 1-204)
  binding: binds
